Experimental data taken from publication doi:10.1101/2024.10.01.616077.
Read-outs that look alike come from different tables or passages of the source. Results are given in words; binding and its absence hold for the method and conditions named. Binding seen in cells or lysates may run through a third protein. Some binding calls cover weakened binding; strength is not graded here.

The chains behind the UniProt entries cited, without tags or fusion partners. Residues count along the entry.
UniProt P50284, 31-415: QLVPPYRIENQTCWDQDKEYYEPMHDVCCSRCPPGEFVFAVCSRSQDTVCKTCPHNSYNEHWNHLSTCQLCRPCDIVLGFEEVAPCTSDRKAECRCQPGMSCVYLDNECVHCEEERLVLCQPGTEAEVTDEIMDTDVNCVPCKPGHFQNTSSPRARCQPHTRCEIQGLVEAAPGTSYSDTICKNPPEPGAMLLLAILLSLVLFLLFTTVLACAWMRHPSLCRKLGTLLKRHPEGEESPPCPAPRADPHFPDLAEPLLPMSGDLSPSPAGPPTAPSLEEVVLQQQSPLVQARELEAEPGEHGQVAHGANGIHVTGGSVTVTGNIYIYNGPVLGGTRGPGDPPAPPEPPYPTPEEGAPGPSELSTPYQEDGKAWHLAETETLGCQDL

What was measured:
[1] = target: Lymphotoxin beta receptor (LTβR) of mouse melanoma B16F10 cells (mouse (endogenous in B16F10)) (UniProt P50284); test: co-IP
[2] = target: Lymphotoxin beta receptor (LTβR) of mouse melanoma B16F10 cells (mouse (endogenous in B16F10)) (UniProt P50284); test: co-IP; remark: listed apart in the source

Binder | binding [1] | binding [2]
TRAF3 (protein, UniProt Q60803 1-567) MESSKKMDAAGTLQPNPPLKLQPDRGAGSVLVPEQGGYKEKFVKTVEDKYKCEKCRLVLCNPKQTECGHRFCESCMAALLSSSSPKCTACQESIIKDKVFKDNCCKREILALQVYCRNEGRGCAEQLTLGHLLVHLKNECQFEELPCLRADCKEKVLRKDLRDHVEKACKYREATCSHCKSQVPMIKLQKHEDTDCPCVVVSCPHKCSVQTLLRSELSAHLSECVNAPSTCSFKRYGCVFQGTNQQIKAHEASSAVQHVNLLKEWSNSLEKKVSLLQNESVEKNKSIQSLHNQICSFEIEIERQKEMLRNNESKILHLQRVIDSQAEKLKELDKEIRPFRQNWEEADSMKSSVESLQNRVTELESVDKSAGQAARNTGLLESQLSRHDQMLSVHDIRLADMDLRFQVLETASYNGVLIWKIRDYKRRKQEAVMGKTLSLYSQPFYTGYFGYKMCARVYLNGDGMGKGTHLSLFFVIMRGEYDALLPWPFKQKVTLMLMDQGSSRRHLGDAFKPDPNSSSFKKPTGEMNIASGCPVFVAQTVLENGTYIKDDTIFIKVIVDTSDLPDP | binds | –
TRAF2 (protein, UniProt P39429 1-501) MAAASVTSPGSLELLQPGFSKTLLGTRLEAKYLCSACKNILRRPFQAQCGHRYCSFCLTSILSSGPQNCAACVYEGLYEEGISILESSSAFPDNAARREVESLPAVCPNDGCTWKGTLKEYESCHEGLCPFLLTECPACKGLVRLSEKEHHTEQECPKRSLSCQHCRAPCSHVDLEVHYEVCPKFPLTCDGCGKKKIPRETFQDHVRACSKCRVLCRFHTVGCSEMVETENLQDHELQRLREHLALLLSSFLEAQASPGTLNQVGPELLQRCQILEQKIATFENIVCVLNREVERVAVTAEACSRQHRLDQDKIEALSNKVQQLERSIGLKDLAMADLEQKVSELEVSTYDGVFIWKISDFTRKRQEAVAGRTPAIFSPAFYTSRYGYKMCLRVYLNGDGTGRGTHLSLFFVVMKGPNDALLQWPFNQKVTLMLLDHNNREHVIDAFRPDVTSSSFQRPVSDMNIASGCPLFCPVSKMEAKNSYVRDDAIFIKAIVDLTGL | binds | binds weakly
